According to the supplement of paper PMC11732987, “Enantioselective OTUD7B fragment discovery through chemoproteomics screening and high-throughput optimisation” (Communications Chemistry, 2025):
This is one part of the list. The data scatter; read single values as rough.

Chains of the proteins cited; added tags and fusions are not shown. Lines headed by an entry give the natural chain unless they say otherwise; changes in a name come on top. Residues count along the entry.
UniProt Q96IY1: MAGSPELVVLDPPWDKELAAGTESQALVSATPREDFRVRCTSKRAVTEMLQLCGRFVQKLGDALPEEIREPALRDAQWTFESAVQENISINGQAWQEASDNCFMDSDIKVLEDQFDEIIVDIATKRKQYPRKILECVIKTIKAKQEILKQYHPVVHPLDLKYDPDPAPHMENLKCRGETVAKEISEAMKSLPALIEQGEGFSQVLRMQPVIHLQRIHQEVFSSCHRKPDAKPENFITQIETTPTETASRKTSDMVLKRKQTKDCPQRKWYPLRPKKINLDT
UniProt Q5SWX8, 214-239: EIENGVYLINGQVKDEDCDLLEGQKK
UniProt Q5TFE4: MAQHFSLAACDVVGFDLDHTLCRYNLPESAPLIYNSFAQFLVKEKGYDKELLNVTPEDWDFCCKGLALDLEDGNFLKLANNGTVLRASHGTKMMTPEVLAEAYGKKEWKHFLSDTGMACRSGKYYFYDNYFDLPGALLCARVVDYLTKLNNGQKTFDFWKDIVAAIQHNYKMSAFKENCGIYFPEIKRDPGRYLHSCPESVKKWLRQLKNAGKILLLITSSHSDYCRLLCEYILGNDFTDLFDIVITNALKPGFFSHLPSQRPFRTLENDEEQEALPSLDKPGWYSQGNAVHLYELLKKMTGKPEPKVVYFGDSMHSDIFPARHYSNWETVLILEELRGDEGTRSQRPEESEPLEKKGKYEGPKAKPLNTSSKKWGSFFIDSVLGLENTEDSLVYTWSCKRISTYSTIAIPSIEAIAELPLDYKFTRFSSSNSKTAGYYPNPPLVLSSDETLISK
UniProt P78549, 99-118: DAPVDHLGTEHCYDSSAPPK
UniProt P13056: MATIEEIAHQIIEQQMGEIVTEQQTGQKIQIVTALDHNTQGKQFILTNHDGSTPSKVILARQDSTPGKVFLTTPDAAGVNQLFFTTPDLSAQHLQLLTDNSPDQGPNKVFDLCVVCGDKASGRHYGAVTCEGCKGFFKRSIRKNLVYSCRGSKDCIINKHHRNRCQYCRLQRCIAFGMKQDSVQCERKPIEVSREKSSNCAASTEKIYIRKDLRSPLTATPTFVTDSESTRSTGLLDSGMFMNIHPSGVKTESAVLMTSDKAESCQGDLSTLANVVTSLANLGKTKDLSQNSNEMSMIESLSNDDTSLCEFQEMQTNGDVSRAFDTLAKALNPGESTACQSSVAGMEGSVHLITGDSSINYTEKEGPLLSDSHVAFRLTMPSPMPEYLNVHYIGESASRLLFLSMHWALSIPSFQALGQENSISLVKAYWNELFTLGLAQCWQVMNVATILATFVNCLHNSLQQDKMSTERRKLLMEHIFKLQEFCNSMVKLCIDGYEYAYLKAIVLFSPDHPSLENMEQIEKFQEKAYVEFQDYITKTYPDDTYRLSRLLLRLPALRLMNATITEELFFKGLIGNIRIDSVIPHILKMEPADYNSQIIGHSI
UniProt Q12980: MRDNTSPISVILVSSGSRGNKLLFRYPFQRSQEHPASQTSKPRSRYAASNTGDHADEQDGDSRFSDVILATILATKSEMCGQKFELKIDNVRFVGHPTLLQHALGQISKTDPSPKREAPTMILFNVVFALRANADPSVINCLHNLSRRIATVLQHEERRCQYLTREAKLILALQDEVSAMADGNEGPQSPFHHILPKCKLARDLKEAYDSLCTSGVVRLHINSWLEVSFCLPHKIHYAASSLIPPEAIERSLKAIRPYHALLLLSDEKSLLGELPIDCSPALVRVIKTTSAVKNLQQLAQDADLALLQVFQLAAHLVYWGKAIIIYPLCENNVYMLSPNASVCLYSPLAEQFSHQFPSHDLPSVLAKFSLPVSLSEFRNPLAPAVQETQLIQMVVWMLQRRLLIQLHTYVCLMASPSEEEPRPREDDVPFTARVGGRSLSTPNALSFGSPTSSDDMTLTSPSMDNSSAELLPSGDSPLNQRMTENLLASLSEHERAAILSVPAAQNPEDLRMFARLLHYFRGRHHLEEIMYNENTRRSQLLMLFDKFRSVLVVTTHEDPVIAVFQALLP
UniProt Q92621: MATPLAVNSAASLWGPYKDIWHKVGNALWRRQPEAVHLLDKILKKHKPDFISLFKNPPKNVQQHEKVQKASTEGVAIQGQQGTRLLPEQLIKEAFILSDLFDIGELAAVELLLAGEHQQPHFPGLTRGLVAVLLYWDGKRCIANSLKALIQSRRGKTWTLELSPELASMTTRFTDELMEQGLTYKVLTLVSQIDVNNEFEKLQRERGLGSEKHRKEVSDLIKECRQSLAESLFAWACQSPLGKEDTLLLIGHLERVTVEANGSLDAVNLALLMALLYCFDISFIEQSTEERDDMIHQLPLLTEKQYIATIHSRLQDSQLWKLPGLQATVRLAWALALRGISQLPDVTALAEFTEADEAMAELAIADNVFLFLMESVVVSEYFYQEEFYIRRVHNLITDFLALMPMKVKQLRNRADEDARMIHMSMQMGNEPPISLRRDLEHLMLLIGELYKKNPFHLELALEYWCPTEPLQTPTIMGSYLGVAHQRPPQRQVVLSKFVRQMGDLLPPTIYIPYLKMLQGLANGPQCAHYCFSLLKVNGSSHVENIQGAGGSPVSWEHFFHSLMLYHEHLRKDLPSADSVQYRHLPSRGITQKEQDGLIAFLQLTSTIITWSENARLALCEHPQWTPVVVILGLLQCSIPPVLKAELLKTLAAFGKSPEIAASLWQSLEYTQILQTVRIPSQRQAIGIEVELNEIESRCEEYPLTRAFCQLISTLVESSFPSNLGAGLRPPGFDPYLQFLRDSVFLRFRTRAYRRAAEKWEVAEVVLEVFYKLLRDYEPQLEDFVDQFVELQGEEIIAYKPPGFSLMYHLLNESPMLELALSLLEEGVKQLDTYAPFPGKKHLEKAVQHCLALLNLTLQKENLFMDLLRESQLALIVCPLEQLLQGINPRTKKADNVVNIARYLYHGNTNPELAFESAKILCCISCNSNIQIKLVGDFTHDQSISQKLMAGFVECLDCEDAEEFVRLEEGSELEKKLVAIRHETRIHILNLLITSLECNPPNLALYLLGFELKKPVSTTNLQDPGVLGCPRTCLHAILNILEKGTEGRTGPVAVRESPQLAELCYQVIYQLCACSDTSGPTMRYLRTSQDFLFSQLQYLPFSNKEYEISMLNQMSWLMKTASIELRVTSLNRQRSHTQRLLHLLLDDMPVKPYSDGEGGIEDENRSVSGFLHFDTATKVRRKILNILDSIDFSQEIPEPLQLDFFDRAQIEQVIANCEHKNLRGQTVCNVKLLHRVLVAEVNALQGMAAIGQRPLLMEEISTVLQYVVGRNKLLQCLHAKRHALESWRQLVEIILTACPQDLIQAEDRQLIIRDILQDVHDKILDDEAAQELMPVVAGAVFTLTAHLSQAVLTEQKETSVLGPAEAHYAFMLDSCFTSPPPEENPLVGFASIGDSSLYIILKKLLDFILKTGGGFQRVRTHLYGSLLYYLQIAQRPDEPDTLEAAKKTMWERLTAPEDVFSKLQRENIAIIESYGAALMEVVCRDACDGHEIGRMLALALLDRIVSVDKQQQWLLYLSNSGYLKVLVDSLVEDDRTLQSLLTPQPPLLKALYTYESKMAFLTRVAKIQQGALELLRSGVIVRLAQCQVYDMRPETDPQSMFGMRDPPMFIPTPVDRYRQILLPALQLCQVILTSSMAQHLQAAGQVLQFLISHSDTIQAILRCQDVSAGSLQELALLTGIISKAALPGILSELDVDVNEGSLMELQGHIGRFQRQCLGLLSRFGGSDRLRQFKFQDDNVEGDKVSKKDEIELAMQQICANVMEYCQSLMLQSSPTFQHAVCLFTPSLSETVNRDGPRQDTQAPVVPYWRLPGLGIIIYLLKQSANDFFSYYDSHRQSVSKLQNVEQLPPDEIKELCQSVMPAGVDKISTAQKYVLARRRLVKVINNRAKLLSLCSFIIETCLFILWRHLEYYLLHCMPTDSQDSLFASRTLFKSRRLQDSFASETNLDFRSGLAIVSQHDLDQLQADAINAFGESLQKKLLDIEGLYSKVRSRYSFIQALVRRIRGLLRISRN
UniProt Q8N543: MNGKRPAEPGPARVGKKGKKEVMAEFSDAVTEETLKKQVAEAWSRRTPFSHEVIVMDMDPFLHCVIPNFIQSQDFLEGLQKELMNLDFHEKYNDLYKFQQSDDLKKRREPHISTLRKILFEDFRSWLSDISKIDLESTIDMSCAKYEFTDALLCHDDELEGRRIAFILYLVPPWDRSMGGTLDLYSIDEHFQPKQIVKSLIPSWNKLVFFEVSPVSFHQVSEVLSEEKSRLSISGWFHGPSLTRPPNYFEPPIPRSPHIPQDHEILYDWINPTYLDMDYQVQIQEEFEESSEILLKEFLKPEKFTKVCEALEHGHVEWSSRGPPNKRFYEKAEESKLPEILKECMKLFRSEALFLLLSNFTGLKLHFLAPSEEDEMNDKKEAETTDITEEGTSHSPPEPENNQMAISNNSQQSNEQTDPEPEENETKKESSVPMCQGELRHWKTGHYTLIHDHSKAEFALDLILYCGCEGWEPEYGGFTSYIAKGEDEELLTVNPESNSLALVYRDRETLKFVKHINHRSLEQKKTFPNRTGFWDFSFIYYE
UniProt O15294: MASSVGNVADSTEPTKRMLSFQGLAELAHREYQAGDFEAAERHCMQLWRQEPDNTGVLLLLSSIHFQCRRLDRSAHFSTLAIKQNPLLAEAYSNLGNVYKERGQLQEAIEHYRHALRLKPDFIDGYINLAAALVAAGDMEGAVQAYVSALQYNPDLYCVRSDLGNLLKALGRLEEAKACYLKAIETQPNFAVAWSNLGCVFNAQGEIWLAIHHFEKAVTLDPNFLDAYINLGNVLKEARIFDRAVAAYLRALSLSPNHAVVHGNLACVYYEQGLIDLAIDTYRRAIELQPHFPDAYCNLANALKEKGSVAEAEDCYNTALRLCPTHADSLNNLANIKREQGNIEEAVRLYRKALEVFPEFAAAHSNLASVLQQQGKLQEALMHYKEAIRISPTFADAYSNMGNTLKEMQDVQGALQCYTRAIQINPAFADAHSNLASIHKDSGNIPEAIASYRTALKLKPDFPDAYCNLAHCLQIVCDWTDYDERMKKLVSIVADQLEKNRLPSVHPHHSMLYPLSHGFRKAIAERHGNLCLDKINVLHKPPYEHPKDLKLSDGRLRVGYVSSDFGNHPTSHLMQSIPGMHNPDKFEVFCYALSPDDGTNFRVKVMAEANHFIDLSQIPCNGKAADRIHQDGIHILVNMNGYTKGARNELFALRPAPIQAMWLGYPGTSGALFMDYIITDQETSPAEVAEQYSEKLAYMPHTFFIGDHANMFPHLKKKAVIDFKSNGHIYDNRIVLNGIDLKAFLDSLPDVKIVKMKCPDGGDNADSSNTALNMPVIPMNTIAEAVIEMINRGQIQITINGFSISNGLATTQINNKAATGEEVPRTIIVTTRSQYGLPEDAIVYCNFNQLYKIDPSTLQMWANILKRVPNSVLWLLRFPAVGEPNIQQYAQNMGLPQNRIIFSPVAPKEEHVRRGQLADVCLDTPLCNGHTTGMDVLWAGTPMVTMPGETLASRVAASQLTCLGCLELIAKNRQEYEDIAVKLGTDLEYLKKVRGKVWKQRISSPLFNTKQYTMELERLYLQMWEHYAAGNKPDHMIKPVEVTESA
UniProt Q13415: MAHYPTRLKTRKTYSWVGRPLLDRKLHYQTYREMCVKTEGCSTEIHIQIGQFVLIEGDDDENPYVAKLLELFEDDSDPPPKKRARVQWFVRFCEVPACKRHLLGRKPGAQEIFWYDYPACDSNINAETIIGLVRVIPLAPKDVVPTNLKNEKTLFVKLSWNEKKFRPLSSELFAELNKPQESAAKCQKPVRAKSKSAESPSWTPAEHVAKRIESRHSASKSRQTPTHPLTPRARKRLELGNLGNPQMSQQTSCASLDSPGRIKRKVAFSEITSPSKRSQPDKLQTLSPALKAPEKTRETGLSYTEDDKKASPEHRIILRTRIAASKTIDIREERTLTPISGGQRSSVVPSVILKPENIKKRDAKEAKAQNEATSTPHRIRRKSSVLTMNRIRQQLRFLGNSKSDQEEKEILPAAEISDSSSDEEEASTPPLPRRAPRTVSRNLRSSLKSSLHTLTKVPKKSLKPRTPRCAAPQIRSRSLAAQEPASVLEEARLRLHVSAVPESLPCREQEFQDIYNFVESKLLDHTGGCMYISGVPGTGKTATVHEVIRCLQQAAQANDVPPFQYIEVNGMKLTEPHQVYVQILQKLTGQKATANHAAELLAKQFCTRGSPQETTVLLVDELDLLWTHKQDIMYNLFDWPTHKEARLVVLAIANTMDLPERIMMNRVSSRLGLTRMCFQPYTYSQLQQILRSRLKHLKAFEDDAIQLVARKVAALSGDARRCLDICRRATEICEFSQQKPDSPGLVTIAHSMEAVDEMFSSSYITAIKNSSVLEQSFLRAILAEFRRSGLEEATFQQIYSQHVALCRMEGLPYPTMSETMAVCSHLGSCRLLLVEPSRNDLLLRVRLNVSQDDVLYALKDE

Key:
[1] = compound: ClCC(=O)N[C@@H]1CCCc2ccccc12; experiment: log2 mean competition ratio of IA-DTB cysteine labelling (DMSO/compound) (log2 ratio); higher = stronger cysteine engagement by compound; details: treatment time: 4 h, cell line lysate: HEK293T
Experimental: (§1)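 IA-DTB competitive cysteine chemoproteomics in HEK293T RIPA lysate. Lysates were treated with compound 29 or 30 at 50 or 200 µM for 4 h, then IA-DTB (500 µM, 1 h), trypsin-digested, NeutrAvidin-enriched and analysed by diaPASEF. Competition ratio = intensity DMSO / intensity compound (n=4 treated, n=64 DMSO); binding: mean log2 CR ≥ 1 and p ≤ 0.05 plus QC filters. Target is the cysteine site.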

[2] = compound: ClCC(=O)N[C@H]1CCCc2ccccc12; experiment: as above; details: treatment time: 4 h, cell line lysate: HEK293T
Experimental: as §1

Row | Target | log2 mean competition ratio ([1]; 50 µM) | log2 mean competition ratio ([1]; 200 µM) | log2 mean competition ratio ([2]; 50 µM) | log2 mean competition ratio ([2]; 200 µM)
1 | NSL1 C175 (UniProt Q96IY1) | 0.4 | 0.164 | 0.441 | 0.201
2 | ODR4 C141 (UniProt Q5SWX8) | 0.518 | -0.211 | 0.515 | -0.251
3 | NSD1 C615 (UniProt Q96L73) | -0.139 | -0.123 | 0.185 | 0.173
4 | OGFOD3 C90 (UniProt Q6PK18) | -0.0107 | 0.228 | -0.573 | 0.153
5 | NUMA1 C1367 (UniProt Q14980) | 0.088 | -0.276 | 0.114 | -0.0984
6 | NUMBL C78 (UniProt Q9Y6R0) | 0.0345 | 0.0829 | 0.245 | 0.318
7 | NT5DC1 C179 (UniProt Q5TFE4) | -6.11e-05 | -0.388 | -0.221 | -0.301
8 | NTHL1 C118 (UniProt P78549) | 0.0079 | 0.219 | 0.431 | -0.105
9 | NR2C1 C185 (UniProt P13056) | -0.141 | 0.29 | 0.146 | 0.0587
10 | NPRL3 C278 (UniProt Q12980) | 0.147 | -0.000321 | 0.164 | 0.0712
11 | NUP205 C1227 (UniProt Q92621) | -0.0114 | 0.0409 | 0.151 | 0.0219
12 | ODR4 C231 (UniProt Q5SWX8) | -0.607 | 0.279 | -0.444 | 0.14
13 | NUP188 C161 (UniProt Q5SRE5) | 0.00136 | -0.14 | -0.408 | -0.274
14 | OGFOD1 C435 (UniProt Q8N543) | -0.145 | -0.274 | 0.0949 | -0.144
15 | NUB1 C317 | 0.148 | 0.173 | 0.165 | -0.0184
16 | NR3C1 C287 (UniProt P04150) | -0.283 | 0.0448 | -0.228 | 0.0328
17 | NUP85 C112 (UniProt Q9BW27) | 0.0498 | -0.0792 | -0.839 | -0.338
18 | NUBP1 C8 (UniProt P53384) | -0.366 | 0.289 | -0.315 | 0.263
19 | OGT C531 (UniProt O15294) | -0.256 | -0.0976 | -0.25 | -0.218
20 | ORC1 C469 (UniProt Q13415) | 0.166 | 0.147 | 0.208 | 0.112
21 | NR2C2 C204 (UniProt P49116) | -0.375 | 0.0328 | -0.308 | -0.144
22 | NRDE2 C203 (UniProt Q9H7Z3) | 0.0638 | -0.0843 | 0.338 | 0.00999

Laid out differently: entries from further up

| Row | Target | log2 mean competition ratio ([1]; 50 µM) | log2 mean competition ratio ([1]; 200 µM) | log2 mean competition ratio ([2]; 50 µM) | log2 mean competition ratio ([2]; 200 µM) |
| --- | --- | --- | --- | --- | --- |
| 1 | NSL1 C175 (UniProt Q96IY1) | 0.4 | 0.164 | 0.441 | 0.201 |
| 2 | ODR4 C141 (UniProt Q5SWX8) | 0.518 | -0.211 | 0.515 | -0.251 |
